Patent US6743604
These are yes or no findings as the source states them, for the method shown. Some results given as binding are weak or reduced against the parent protein; the word gives no strength.

By UniProt entry, the sequences of proteins in these tests, tags left out. Where a name states a change or a piece, a line headed by the entry shows the natural chain unless it says otherwise. Residues count along the entry.
UniProt P24394: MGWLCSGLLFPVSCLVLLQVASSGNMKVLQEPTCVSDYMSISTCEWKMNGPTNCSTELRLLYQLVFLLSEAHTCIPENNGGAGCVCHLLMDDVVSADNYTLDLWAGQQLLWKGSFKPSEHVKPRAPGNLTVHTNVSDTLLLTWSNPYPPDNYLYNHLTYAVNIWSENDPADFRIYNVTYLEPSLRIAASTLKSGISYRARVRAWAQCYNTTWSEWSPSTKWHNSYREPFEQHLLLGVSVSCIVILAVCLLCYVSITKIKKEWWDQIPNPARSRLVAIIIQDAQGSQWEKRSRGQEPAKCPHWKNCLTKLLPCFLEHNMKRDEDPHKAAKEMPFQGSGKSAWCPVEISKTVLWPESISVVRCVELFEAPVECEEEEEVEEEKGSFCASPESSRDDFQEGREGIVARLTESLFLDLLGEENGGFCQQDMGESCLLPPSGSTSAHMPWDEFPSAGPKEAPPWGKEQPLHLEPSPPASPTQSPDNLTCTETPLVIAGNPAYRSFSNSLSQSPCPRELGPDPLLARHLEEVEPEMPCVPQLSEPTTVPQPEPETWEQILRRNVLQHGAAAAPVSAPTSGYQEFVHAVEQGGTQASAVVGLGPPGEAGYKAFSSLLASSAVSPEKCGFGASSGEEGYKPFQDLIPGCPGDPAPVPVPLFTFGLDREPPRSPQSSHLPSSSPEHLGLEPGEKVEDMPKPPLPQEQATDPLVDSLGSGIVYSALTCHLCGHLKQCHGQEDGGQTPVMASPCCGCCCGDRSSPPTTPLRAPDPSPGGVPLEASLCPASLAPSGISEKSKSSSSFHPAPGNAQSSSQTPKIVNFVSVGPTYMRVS
UniProt P35225, residues 35-146: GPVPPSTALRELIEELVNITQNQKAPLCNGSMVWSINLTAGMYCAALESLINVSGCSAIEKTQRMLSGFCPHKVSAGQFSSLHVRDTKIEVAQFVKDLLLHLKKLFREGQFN

Assays:
[1] = biological target: T1, human IL-13 receptor α1 chain (cDNA clone 3.1) expressed on transiently transfected COS7 cells (human) (UniProt P78552); test: radioligand binding on COS7 cells transfected with IL13Rα1
T1 sequence: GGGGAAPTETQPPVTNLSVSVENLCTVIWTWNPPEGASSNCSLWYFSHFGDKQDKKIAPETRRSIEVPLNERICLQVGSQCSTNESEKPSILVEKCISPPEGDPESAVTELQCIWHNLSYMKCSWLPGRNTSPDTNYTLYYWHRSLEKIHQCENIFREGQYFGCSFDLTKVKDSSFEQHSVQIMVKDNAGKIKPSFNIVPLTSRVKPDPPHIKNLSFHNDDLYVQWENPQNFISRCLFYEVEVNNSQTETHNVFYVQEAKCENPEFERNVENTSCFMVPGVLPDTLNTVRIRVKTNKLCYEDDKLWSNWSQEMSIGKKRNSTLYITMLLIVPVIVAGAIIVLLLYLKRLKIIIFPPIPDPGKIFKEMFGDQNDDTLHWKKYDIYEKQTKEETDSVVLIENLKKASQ

[2] = biological target: human IL13Rα1 co-expressed with human IL4Rα on transiently co-transfected COS7 cells (heterologous IL4/IL13R complex) (human) (UniProt P24394); test: radioligand binding on co-transfected COS7 cells
[3] = biological target: T1, human IL-13 receptor α1 chain (cDNA clone 3.1) expressed on transiently transfected COS7 cells (human); test: radioligand affinity cross-linking, SDS-PAGE, COS7 transfectants
[4] = biological target: T1, human IL-13 receptor α1 chain (cDNA clone 3.1) expressed on transiently transfected COS7 cells (human); test: binding to Cos transfectants
[5] = biological target: human IL13Rα1 co-expressed with human IL4Rα on transiently co-transfected COS7 cells (heterologous IL4/IL13R complex) (human) (UniProt P24394); test: binding to Cos co-transfectants

Measured: binding

human IL-13 (from UniProt P35225 35-146) (ligand)
binds: all assays above
